For 35 targets, log2 fold change results are on record in the supplement of paper PMC12819154, “High-throughput peptide-centric local stability assay extends protein–ligand identification to membrane proteins, tissues and bacteria” (Nature Structural & Molecular Biology, 2025).

The chains behind the UniProt entries cited, without tags or fusion partners. Where a name states a change or a piece, a line headed by the entry shows the natural chain unless it says otherwise.
UniProt Q8BWQ1: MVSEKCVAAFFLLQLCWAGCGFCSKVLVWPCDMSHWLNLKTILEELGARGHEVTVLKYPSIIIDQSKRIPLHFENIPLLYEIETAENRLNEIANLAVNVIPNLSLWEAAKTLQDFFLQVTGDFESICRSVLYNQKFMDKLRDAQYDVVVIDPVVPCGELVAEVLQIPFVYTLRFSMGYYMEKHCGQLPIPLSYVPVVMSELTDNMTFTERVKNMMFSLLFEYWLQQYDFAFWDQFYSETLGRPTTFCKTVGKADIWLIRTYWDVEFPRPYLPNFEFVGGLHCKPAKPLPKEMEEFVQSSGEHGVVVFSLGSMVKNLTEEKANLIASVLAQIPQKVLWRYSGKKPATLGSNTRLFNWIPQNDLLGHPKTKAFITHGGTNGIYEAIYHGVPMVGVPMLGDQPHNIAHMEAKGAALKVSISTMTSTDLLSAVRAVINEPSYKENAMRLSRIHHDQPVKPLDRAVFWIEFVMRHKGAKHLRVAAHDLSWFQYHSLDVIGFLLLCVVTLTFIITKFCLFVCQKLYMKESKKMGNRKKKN
UniProt Q8BYY4: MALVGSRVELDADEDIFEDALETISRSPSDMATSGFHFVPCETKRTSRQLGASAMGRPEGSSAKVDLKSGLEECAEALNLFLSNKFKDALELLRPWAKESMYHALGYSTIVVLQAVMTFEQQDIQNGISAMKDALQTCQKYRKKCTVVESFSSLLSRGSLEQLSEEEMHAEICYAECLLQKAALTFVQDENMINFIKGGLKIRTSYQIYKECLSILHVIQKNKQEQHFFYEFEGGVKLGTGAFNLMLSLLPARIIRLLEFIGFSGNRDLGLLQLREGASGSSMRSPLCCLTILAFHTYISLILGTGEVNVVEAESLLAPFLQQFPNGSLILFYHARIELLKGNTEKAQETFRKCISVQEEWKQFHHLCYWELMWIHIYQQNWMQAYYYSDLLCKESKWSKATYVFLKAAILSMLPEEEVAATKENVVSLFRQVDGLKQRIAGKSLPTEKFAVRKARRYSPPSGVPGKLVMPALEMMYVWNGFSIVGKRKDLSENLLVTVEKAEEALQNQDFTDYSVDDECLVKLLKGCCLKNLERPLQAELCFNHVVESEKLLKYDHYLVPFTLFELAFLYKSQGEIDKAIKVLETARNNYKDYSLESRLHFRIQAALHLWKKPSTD
UniProt Q8C2K1, whole entry: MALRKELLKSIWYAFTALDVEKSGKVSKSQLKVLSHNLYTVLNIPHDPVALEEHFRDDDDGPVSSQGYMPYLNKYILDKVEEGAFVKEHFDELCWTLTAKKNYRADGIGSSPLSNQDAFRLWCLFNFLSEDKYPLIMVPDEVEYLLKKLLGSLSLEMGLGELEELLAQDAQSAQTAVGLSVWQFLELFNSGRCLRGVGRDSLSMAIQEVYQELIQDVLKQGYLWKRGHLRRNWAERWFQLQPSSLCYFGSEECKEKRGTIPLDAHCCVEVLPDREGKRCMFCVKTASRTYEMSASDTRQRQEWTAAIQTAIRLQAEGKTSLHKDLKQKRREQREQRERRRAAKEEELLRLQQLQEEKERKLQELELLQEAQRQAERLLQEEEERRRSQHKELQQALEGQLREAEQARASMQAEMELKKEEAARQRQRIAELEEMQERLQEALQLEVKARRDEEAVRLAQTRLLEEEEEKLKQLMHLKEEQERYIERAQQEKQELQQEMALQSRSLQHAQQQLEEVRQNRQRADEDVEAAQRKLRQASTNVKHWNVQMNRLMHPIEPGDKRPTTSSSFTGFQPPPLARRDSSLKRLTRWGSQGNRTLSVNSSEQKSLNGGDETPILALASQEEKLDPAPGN
UniProt Q8BZH4: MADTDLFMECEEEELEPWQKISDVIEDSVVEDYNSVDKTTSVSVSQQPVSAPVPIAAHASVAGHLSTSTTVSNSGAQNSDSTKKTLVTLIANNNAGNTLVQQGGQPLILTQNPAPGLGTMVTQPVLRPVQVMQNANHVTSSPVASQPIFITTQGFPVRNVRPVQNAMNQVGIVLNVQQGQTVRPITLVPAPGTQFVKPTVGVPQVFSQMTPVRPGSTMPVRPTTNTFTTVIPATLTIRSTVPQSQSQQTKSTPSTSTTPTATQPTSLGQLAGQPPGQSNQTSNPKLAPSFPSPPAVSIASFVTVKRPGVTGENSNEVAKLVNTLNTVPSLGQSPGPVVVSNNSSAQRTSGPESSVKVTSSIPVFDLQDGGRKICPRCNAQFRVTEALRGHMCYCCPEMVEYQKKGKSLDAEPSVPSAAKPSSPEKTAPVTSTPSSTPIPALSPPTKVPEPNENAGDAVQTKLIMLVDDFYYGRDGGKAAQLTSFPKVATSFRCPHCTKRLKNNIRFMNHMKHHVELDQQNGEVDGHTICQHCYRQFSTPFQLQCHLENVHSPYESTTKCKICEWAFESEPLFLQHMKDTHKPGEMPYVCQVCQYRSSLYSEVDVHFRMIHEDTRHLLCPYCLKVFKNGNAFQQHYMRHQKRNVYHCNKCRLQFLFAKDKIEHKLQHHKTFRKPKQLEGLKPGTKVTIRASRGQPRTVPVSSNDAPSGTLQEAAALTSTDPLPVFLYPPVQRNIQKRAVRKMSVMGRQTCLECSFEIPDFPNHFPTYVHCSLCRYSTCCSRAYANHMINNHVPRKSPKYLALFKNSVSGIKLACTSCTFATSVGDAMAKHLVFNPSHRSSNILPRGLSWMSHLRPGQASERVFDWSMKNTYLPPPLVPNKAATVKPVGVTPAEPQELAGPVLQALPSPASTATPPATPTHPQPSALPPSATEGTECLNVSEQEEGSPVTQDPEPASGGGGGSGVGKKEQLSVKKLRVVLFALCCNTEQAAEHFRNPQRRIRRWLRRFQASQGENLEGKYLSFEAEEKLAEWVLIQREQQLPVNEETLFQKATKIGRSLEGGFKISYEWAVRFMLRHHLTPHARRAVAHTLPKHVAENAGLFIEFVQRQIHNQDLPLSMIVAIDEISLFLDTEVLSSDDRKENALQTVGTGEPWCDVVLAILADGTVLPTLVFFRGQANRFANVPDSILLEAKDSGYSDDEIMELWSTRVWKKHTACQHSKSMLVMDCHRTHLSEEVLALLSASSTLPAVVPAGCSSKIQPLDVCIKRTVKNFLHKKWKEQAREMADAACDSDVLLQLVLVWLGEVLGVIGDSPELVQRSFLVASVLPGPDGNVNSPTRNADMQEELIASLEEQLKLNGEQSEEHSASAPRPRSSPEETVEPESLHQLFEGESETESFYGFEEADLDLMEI
UniProt Q8BWG9, whole entry: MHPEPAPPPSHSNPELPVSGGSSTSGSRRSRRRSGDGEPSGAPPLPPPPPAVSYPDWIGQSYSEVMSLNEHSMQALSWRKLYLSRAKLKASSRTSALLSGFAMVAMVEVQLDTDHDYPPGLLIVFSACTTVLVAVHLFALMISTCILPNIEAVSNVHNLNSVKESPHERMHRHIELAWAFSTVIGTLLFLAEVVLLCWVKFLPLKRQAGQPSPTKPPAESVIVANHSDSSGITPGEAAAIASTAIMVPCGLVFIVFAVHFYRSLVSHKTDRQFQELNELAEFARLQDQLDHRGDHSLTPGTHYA
UniProt Q8C7Q4: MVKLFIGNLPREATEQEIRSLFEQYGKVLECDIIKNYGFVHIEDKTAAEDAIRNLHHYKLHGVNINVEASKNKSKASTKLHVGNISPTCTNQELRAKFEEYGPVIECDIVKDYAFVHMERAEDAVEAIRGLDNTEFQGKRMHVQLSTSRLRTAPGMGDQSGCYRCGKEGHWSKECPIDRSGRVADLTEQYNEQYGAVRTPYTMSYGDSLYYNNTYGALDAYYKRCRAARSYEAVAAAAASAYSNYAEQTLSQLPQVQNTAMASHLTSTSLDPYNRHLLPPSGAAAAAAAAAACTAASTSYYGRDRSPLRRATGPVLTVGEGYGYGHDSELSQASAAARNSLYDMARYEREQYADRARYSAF
UniProt Q8BVI4: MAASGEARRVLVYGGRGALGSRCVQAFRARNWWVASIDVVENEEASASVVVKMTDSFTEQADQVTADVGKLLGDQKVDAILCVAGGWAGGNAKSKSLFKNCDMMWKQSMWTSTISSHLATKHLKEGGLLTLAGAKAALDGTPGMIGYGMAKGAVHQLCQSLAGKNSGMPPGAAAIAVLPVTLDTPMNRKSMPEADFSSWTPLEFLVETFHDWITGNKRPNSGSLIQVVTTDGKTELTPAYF
UniProt Q8C5D8, whole entry: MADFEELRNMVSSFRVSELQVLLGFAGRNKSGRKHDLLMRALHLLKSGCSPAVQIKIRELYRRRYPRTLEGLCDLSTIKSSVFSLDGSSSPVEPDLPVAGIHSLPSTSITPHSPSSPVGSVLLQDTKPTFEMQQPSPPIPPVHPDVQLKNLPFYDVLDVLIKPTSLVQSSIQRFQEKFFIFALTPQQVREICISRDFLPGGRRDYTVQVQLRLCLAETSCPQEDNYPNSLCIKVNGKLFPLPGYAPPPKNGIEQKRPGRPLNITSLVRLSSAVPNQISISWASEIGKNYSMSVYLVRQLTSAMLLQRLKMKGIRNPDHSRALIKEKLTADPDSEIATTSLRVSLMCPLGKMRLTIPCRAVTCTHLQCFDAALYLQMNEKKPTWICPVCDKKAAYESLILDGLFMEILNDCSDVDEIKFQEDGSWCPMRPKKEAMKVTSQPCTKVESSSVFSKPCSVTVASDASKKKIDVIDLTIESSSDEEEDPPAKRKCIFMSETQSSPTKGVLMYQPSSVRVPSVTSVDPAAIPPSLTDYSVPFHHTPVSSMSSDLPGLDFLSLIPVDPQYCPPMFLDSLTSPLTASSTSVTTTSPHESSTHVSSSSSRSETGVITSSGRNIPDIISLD
UniProt Q8C2P3: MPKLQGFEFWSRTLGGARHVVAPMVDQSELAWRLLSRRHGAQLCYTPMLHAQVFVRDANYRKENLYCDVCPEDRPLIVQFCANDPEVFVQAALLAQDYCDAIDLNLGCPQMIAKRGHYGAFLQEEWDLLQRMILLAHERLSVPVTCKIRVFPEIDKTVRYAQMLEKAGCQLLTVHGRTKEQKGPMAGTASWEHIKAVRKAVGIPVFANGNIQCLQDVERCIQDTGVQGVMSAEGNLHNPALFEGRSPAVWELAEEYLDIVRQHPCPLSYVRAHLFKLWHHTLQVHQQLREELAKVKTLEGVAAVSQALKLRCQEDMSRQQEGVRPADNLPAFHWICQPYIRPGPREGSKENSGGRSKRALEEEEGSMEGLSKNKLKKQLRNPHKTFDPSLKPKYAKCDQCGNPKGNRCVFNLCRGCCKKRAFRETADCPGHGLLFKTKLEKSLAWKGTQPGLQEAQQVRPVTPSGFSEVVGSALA
UniProt Q8BZ36: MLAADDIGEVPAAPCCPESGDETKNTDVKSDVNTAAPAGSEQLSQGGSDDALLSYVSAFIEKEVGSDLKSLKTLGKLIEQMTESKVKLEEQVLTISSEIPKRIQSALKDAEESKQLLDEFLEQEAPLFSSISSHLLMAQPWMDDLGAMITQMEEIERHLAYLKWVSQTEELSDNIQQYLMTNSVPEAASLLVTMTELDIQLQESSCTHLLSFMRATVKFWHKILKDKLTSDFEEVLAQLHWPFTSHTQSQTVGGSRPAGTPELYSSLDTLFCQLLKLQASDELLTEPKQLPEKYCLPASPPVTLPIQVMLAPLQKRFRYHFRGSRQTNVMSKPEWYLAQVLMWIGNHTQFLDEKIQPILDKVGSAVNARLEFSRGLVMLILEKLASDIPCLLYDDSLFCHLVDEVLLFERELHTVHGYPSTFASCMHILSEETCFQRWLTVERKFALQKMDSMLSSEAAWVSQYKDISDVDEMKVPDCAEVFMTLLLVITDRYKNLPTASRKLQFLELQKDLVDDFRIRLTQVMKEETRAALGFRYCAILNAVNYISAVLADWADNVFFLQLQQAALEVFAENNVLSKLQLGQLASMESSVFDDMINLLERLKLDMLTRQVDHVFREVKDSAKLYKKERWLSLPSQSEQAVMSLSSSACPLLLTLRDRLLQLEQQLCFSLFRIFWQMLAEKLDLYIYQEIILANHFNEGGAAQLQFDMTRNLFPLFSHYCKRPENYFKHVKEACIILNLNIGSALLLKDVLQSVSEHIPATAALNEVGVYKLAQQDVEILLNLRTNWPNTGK
UniProt Q8BXK9: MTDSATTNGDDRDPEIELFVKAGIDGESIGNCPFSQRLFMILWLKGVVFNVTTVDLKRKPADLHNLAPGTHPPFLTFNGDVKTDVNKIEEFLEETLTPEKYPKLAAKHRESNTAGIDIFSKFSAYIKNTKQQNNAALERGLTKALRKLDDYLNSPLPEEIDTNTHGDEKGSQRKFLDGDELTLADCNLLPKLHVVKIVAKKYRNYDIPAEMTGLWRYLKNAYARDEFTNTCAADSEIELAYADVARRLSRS
UniProt Q8C0M9: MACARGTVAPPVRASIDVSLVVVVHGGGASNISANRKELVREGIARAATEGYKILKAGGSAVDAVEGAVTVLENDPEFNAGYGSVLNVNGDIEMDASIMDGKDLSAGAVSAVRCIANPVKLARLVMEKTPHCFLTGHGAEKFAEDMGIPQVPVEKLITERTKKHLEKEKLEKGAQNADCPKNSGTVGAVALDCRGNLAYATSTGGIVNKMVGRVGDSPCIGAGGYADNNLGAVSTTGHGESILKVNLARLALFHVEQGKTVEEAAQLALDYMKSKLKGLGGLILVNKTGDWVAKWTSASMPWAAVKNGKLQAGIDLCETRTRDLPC

The list shows a part of the results. Most values lie at the level of the controls, where differences are scatter.

Compound in the test: CN[C@@H]1C[C@H]2O[C@@](C)([C@@H]1OC)n1c3ccccc3c3c4c(c5c6ccccc6n2c5c31)C(=O)NC4 [staurosporine]
Put plainly: log2 fold change of tryptic peptide abundance, ligand vs vehicle (limited proteolysis) (log2 ratio); higher = more trypsin-susceptible (destabilized). The conditions noted are these: ligand concentration: 20 uM; sample: mouse liver crude lysate; replicate design: treated separately.
Regarding “UniProt Q8C4Q6 (peptide sequence: EAQAQHNNSEFTEEQKK, peptide start residue: 45)”, the log2 fold change worked out at 0.22.

As for “UniProt Q8BY35 (peptide sequence: FHAQFFLPELQR, peptide start residue: 160)”, the log2 fold change was -0.111. Turning to “UniProt Q8BXB6 (peptide sequence: TTMGTEDMHER, peptide start residue: 8)”, the log2 fold change is -0.106.

As to “UniProt Q8BWR2 (peptide sequence: VHQVTPQTHFIS, peptide start residue: 200)”, the log2 fold change is -0.153. As for “UniProt Q8C0D5 (peptide sequence: IDKIVTSLGLK, peptide start residue: 316)”, the figure is 0.612; as for “UniProt Q8C2Q3 (peptide sequence: RLSESQLSFR, peptide start residue: 616)”, 0.595; as for “UniProt Q8BWQ1 (peptide sequence: ADIWLIR, peptide start residue: 253)”, -0.673. Consider “UniProt Q8BZ05 (peptide sequence: IGGLPLIPIQHER, peptide start residue: 1553)”, for which the log2 fold change was -0.252. On to “UniProt Q8C3J5 (peptide sequence: SSVVFADEK, peptide start residue: 1703)”, for which the log2 fold change is -0.353.

Take “UniProt Q8C3Q9 (peptide sequence: MVTALMEMAHR, peptide start residue: 250)”: the log2 fold change came out at 0.851. On to “UniProt Q8BYY4 (peptide sequence: ECLSILHVIQK, peptide start residue: 211)”, for which the log2 fold change is -0.788.

On to “UniProt Q8BYU6 (peptide sequence: QEVAQDTLRK, peptide start residue: 232)”, for which the log2 fold change is 1.09. “UniProt Q8C827 (peptide sequence: DCGKSFSYNSLLLQHK, peptide start residue: 415)”: the log2 fold change was -0.192. “UniProt Q8BWJ3 (peptide sequence: SLLHHILSGK, peptide start residue: 953)”: the log2 fold change turned out to be 0.699. With “UniProt Q8CAK3 (peptide sequence: STHTHSCSAADCYNRR, peptide start residue: 199)”, the log2 fold change was determined as 0.687. As for “UniProt Q8C2K1 (peptide sequence: LLEEEEEK, peptide start residue: 462)”, the figure is 0.17; as for “UniProt Q8BZH4 (peptide sequence: GHMCYCCPEMVEYQK, peptide start residue: 389)”, 0.477; as for “UniProt Q8C5R2 (peptide sequence: NGDHVGVWHR, peptide start residue: 243)”, -0.519. As to “UniProt Q8BWG9 (peptide sequence: GDHSLTPGTHYA, peptide start residue: 293)”, the log2 fold change was -0.158. For “UniProt Q8C7V3 (peptide sequence: VLNFLIR, peptide start residue: 421)”, the log2 fold change was -0.359. As for “UniProt Q8C7Q4 (peptide sequence: YEREQYADR, peptide start residue: 347)”, the figure is 0.871; as for “UniProt Q8BVI4 (peptide sequence: SLFKNCDMMWK, peptide start residue: 96)”, -0.476. In the case of “UniProt Q8BX70 (peptide sequence: EQGLFHKK, peptide start residue: 3688)”, the log2 fold change was -0.331. Take “UniProt Q8BWR4 (peptide sequence: EFTNLSGIR, peptide start residue: 36)”: the log2 fold change is 0.27.

For the target “UniProt Q8C2E4 (peptide sequence: HRVEADVTFFNTLIR, peptide start residue: 512)”, the log2 fold change is -0.56. As to “UniProt Q8BYA0 (peptide sequence: LGLTFLKPK, peptide start residue: 304)”, the log2 fold change was 0.57.

For the target “UniProt Q8C5D8 (peptide sequence: SETGVITSSGR, peptide start residue: 602)”, the log2 fold change came to 0.266.

Turning to “UniProt Q8C1B7 (peptide sequence: RNEFLGELQK, peptide start residue: 327)”, the log2 fold change amounted to 0.127. As for “UniProt Q8C2P3 (peptide sequence: LSVPVTCK, peptide start residue: 140)”, the figure is 0.302.

Regarding “UniProt Q8C1A9 (peptide sequence: QAIYDAFER, peptide start residue: 449)”, the log2 fold change is -0.21.

Take “UniProt Q8BZ36 (peptide sequence: NLFPLFSHYCK, peptide start residue: 711)”: the log2 fold change was found to be 0.19. “UniProt Q8BXK9 (peptide sequence: ESNTAGIDIFSK, peptide start residue: 110)”: the log2 fold change turned out to be 0.167. Take “UniProt Q8BYW1 (peptide sequence: HLSNDQR, peptide start residue: 493)”: the log2 fold change came to 0.237. For the target “UniProt Q8C0M9 (peptide sequence: GAQNADCPK, peptide start residue: 173)”, the log2 fold change was -0.146. Regarding “UniProt Q8BY87 (peptide sequence: AETVAAPVTVR, peptide start residue: 725)”, the log2 fold change is -0.609.
